The record followed here is patent US20210095028A1 (NANJING LEGEND BIOTECH, published 2021).

The test has as its target cynomolgus TIGIT over-expressed on CHO-K1 cells (cynomolgus). In words: FACS, CHO-K1 cells over-expressing cynomolgus TIGIT. Background: Flow cytometry measures light scatter and fluorescence of single cells or particles in a stream.

Where a chain is given by its changes, count along the chain named. These are yes or no findings as the source states them, for the method shown. Some entries that bind do so weakly or less than the wild type.

B1: 128E3G7F5 (antibody, V domains shown)
VH: EVLLQQSGPELVKTGASVKISCKASGYSFTAYYMHWVKQSHGKSLEWIGYISCYNGATTYNQKFKGKATFTVDTSSTTAYMQFNSLTSEDSAVYYCARRVYYGYDEALVYWGQGTSVTVSS
VL: DIVMTQSPSSLSVSAGEKVTMTCKSSQSLLNSGNQKNYLAWYQQKPGQPPKLLIYGASTRGSGVPDRFTGSGSGTDFTLTISSVQAEDLAVYYCQNDHSYPYTFGGGTKLEIK
notes: Mouse monoclonal antibody; also called mouse anti-human TIGIT monoclonal antibody 128E3G7F5
Take B1: the binding result is reported as “binds”.

B2: 64G1E9B4VH1_VL1.M1 (antibody, human IgG1, V domains shown)
VH: EVQLVQSGAEVKKPGSSVKVSCKASGYTFTEHVIHWVRQAPGQGLEWMGGFNPNHDGTIYNQIFRGRVTITADKSTSTAYMELSSLRSEDTAVYYCARAAKLLFAMDYWGQGTTVTVSS
VL: DIQMTQSPSSLSASVGDRVTITCRASQHVSNAVVWYQQKPGKAPKLLIYSPSYRFTGVPSRFSGSGSGTDFTLTISSLQPEDFATYYCQQHYSTPWTFGGGTKVEIK
notes: Humanized antibody, variable domains fused with the constant region of human IgG1; also called 64G1VH1_VL1.M1
As for B2, the binding result is “binds”.

B3: 64G1E9B4VH1.M1_VL1.M1 (antibody, human IgG1, V domains shown)
VH: B2 VH with D56G
VL: B2 VL
notes: Humanized antibody, variable domains fused with the constant region of human IgG1; also called 64G1VH1.M1_VL1.M1
Take B3: the binding entry is given as “binds”.

B4: 100C4E7D11 (antibody, V domains shown)
VH: EVMLVESGGGLVKPGGSLKLSCAASGFTFSFYTMSWVRQTPEKRLEWVATISSGGGSTYYSDSVKGRFTISRDNAKNNLYLQMTSLRSEDTALYYCSRSLPVDYWGQGTTLTVSS
VL: QIVLTQSPAIMSASLGERVTMTCTASSSVSSTYLHWYQQKPGSSPKLWIYSTSNLASGVPARFSGSGSGTSYSLTISSMEAEDAATYYCHLYHHSPYTFGGGTKLEIK
notes: Mouse monoclonal antibody; also called mouse anti-human TIGIT monoclonal antibody 100C4E7D11
As to B4, the binding entry was “binds”.

B5: 100C4E7D11 chimeric (antibody, V domains shown)
VH: B4 VH
VL: B4 VL
notes: also called 100C4 Chimeric
As for B5, the binding entry is reported as “binds”.

B6: 83G6H11C12 (antibody, V domains shown)
VH: B4 VH
VL: B4 VL with T32S
notes: Mouse monoclonal antibody; also called mouse anti-human TIGIT monoclonal antibody 83G6H11C12
As for B6, the binding result is “binds”.

B7: 92E9D4B4 (antibody, V domains shown)
VH: B4 VH with S53G, S57D, S61P, S63N, T84S, S97A, Y104F
VL: B4 VL with L47F, L55M, L91Y, H94R
notes: Mouse monoclonal antibody; also called mouse anti-human TIGIT monoclonal antibody 92E9D4B4
Regarding B7, the binding result was “binds”.

B8: 64G1E9B4 (antibody, V domains shown)
VH: EVQLQQSGPELVKPGASVKISCKTSGYTFTEHVIHWVKQSHGKSLEWIGGFNPNHDGTIYNQIFRGKATLTVDKSSSTAYMELRSLTSEDSAVYFCTRAAKLLFAMDYWGQGTSVTVSS
VL: DIVMTQSHKFMSTSIGDRVSITCKASQHVSNAVVWYQQKPGQSPKLLIYSPSYRFTGVPDRFTGSGSGTDFTFTISSVQAEDLAVYYCQQHYSTPWTFGGGTKLEIK
notes: Mouse monoclonal antibody; also called mouse anti-human TIGIT monoclonal antibody 64G1E9B4
With B8, the binding entry is “binds”.

B9: 64G1E9B4 chimeric (antibody, V domains shown)
VH: B8 VH
VL: B8 VL
notes: also called 64G1 Chimeric
As to B9, the binding entry was “binds”.

B10: 139E2C2D2 (antibody, V domains shown)
VH: EVQLVESGGDLVKPGGSLKLSCAASGFTFSSYGMSWVRQTPDKRLEWVAIISSGGNYTYYPDSVKGRFTISRDNAKNTLYLQMSSLKSEDTAMYYCARQIHYFFAMDYWGQGTSVTVSS
VL: DIQMTQSPASLSVSVGETVTITCRASENIYSNLAWYQQKQGKSPQLLVYAATNLADGAPSRFSGSRSGTQYSLKINSLQSEDFGSYYCQHFWGTAYTFGGGTKLEIK
notes: Mouse monoclonal antibody; also called mouse anti-human TIGIT monoclonal antibody 139E2C2D2
As to B10, the binding entry is reported as “binds”.

B11: 121C2F10B5 (antibody, V domains shown)
VH: B10 VH with S31T, I50T, N56S, I100V, F104Y
VL: B10 VL with L46V, A58V, G93D, T94N
notes: Mouse monoclonal antibody; also called mouse anti-human TIGIT monoclonal antibody 121C2F10B5
In the case of B11, the binding entry is “binds”.

B12: 104G12E12G2 (antibody, V domains shown)
VH: EVQLQQSGPELVKPGASVKISCKASGYSFTGSYIHWVKQNHVKTLEWIGRINPHNGPTSYNQNFKGKASLTVDLSSSTAYMEVHSLTSEDSAVYYCVRYDGYYGGALDYWGQGTSVTVSS
VL: DIQMTQSPSSLSASLGERVSLTCRASQEISGYLSWLQQKPDGTIKRLIYAASTLDSGVPKRFSGSRSGSDYSLTISSLESEDFADYYCLQYASYPYTFGGGTKLEIK
notes: Mouse monoclonal antibody; also called mouse anti-human TIGIT monoclonal antibody 104G12E12G2
Regarding B12, the binding entry was “binds”.

B13: 100C4E7D11VH1_VL1 (antibody, V domains shown)
VH: EVQLVESGGGLVKPGGSLRLSCAASGFTFSFYTMSWVRQAPGKGLEWVSTISSGGGSTYYSDSVKGRFTISRDNAKNSLYLQMNSLRAEDTAVYYCARSLPVDYWGQGTTVTVSS
VL: EIVLTQSPGTLSLSPGERATLSCTASSSVSSTYLHWYQQKPGQAPRLLIYSTSNLASGIPDRFSGSGSGTDFTLTISRLEPEDFAVYYCHLYHHSPYTFGGGTKVEIK
notes: Humanized antibody, variable domains fused with the constant region of human IgG1; also called 100C4VH1_VL1
As to B13, the binding result is “binds”.
